This passage reports AC50 results from PubChem BioAssay AID493014 (National Center for Advancing Translational Sciences (NCATS), 2011).

Broadly, the AC50 is the midpoint of the concentration-response curve, whichever way the signal moves.

Some of the results follow. Further columns of the screen follow, without active or inactive calls. The list favours compounds with an active or inconclusive main result. Potencies come from curve fits of mixed quality, noted in brackets.

This test can be described thus: qHTS Assay to Find Inhibitors of Chronic Active B-Cell Receptor Signaling. The conditions noted are these: ABC-DLBCL IkBa-CBG/CBR reporter, luminescence ratio (green luciferase fused to IkBa over red control in TMD8 lymphoma cells), 4 h. The procedure, abridged:
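Compounds up to 46 uM were incubated four hours with TMD8 cells whose green CBG68 luciferase is fused to IkappaBalpha; red CBR luminescence normalised the signal, and concentration-effect curves were fitted to fusion, red and ratio data.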
A general note: In qHTS, concentration-response curves come from the screen itself.

The mark [1] stands for this setting: measured here: CBR red luminescence, cell number.
Setting [2] is: measured here: IkBa-CBG green luminescence.

Turning to `Cc1nc(N2CCN(c3ccccc3)CC2)nc2c1C(=O)CC(c1ccccc1)C2` (centres undefined), the AC50 under setting [1] is 12.6 µM [rising, single point]. Consider `O=C(NCC(c1ccco1)N1CCOCC1)c1ccc(F)cc1` (centres undefined), for which the AC50 under setting [1] was 2.91 µM [falling, partial curve, poor fit]. Turning to `Cc1cccc(C)c1OCCOC(=O)c1n[nH]c2ccccc12`, the AC50 under setting [1] was 25.1 µM [rising, single point]. Turning to `O=C(Nc1cccc(S(=O)(=O)N2CCCC2)c1)c1ccc2c(c1)OCO2`, the AC50 under setting [2] is 18.4 µM [rising, partial curve, poor fit]. For the compound `CCCC(=O)Nc1cc(-c2nn(C)c(=O)c3ccccc23)ccc1N1CCOCC1`, under setting [1], the AC50 was 4.61 µM [rising, partial curve, poor fit]. Take `CC(=O)c1[nH]c(C)c(C(C)=O)c1C`: the AC50 under setting [1] was 11.2 µM [falling, single point]. On the same count and under the same terms, the result for `O=C(COC(=O)CCc1ccccc1)Nc1cc([N+](=O)[O-])ccc1F` reads 15.8 µM [falling, single point]; that for `Cn1nc([N+](=O)[O-])nc1Sc1nnnn1-c1cccc(C(=O)O)c1`, 6.31 µM [falling, single point]; that for `O=C(NC(=S)Nc1cccc(Cl)c1Cl)C1CC1`, 22.4 µM [falling, single point]. Regarding `Cc1ccc2[nH]c(=O)c3cc(C(=O)N4CCN(C(=O)c5ccco5)CC4)sc3c2c1`, the AC50 under setting [1] is 6.51 µM [rising, single point]. In the case of `C(=N\NC1=Nc2cccc3cccc1c23)/c1ccccn1`, the AC50 is, setting by setting: under setting [1], 7.08 µM [falling, partial curve, poor fit]; under setting [2], 3.55 µM [falling, single point].

As for `COc1ccc(C2=CC(c3cc(Br)ccc3F)n3c(nc4ccccc43)N2)cc1` (centres undefined), the AC50 under setting [1] is 3.16 µM [falling, full curve, poor fit]. `O=C(Nc1ccc(N2CCCCC2)cc1)c1ccccn1`: under setting [1], the AC50 was 0.794 µM [falling, full curve].

As to `CCC1CCCCN1C(=O)Nc1cccc(NC(=O)N2CCCCC2CC)c1` (centres undefined), under setting [1], the AC50 is 9.2 µM [falling, partial curve]. Turning to `COc1ccc(-c2cc(C(=O)NCc3cn(C)nc3C)c3ccccc3n2)cc1OC`, under setting [1], the AC50 was 10.3 µM [rising, partial curve]. Regarding `Cc1ccc2nc(SCC3CCCCO3)[nH]c2c1` (centres undefined), the AC50 under setting [1] was 0.891 µM [rising, full curve]. On the same count and under the same terms, the result for `O=C(CN1CCCCC1)Nc1ccccc1-c1ccccc1` reads 20.6 µM [falling, single point]; that for `O=C(/C=C/c1ccccc1)NCC1(c2ccccc2)CCOCC1`, 1.58 µM [rising, partial curve, poor fit].

`Cc1cc(NC(=O)CSc2nc3ccccc3[nH]2)no1`: the AC50 under setting [1] is 5.17 µM [falling, full curve]. For the compound `COc1cc(NC(=O)/C=C/c2ccccc2[N+](=O)[O-])cc(OC)c1`, under setting [1], the AC50 was 16.4 µM [falling, single point]. On the same count and under the same terms, under `O=C(CSc1cn(CCNC(=O)c2ccccc2)c2ccccc12)NCc1ccco1` stands 10.3 µM [falling, single point]; under `CCCCOC(=O)c1cc(=O)[nH]c2ccccc12`, 0.651 µM [rising, partial curve, poor fit]. As to `C/C(Cl)=C\Cn1c(O)c(N=NC(N)=S)c2ccccc21`, the AC50 under setting [2] is 7.08 µM [falling, partial curve, poor fit]. Turning to `COc1ccc2ccccc2c1CN1CCN(C(=O)c2ccco2)CC1`, the AC50 under setting [1] is 5.62 µM [rising, full curve, poor fit]. Same read-out and setting: under `CCCc1cc(=O)oc2c(C)c(O[C@@H]3O[C@H](CO)[C@@H](O)[C@H](O)[C@H]3O)ccc12` stands 35.5 µM [falling, single point]; under `O=C(CSc1nnc(CCCO)n1-c1ccccc1)NCCc1ccccc1`, 0.731 µM [falling, full curve, poor fit]; under `CC12CCC(C(=O)NCc3ccccc3)(OC1=O)C2(C)C` (centres undefined), 29.1 µM [rising, single point]. On to `COc1ccc(/C=N/NC(=O)c2sc(C)nc2C)cc1`, for which the AC50 under setting [1] was 7.94 µM [falling, partial curve]. Still for that read-out and setting: the result for `CCOC(=S)SCC(=O)N1CCc2cc(OC)c(OC)cc2C1C1C(=O)CC(C)(C)CC1=O` (centres undefined) reads 29.1 µM [falling, single point]. As for `O=C(COC(=O)C1=COCCO1)Nc1cc(Cl)c(Cl)cc1Cl`, under setting [1], the AC50 is 0.651 µM [rising, full curve, poor fit].

For the compound `COCC(=O)OCC(=O)Nc1cc(C(C)(C)C)nn1-c1ccccc1`, the AC50 under setting [1] is 29.1 µM [falling, partial curve, poor fit].

`NS(=O)(=O)c1ccc2nc(NC(=O)Nc3ccc(F)cc3)sc2c1`: the AC50 under setting [1] was 22.4 µM [falling, single point]. The same measure, in the same setting: under `CC1CC(C)CN(CCCNC(=O)Cn2ncn3cccc3c2=O)C1` (centres undefined) stands 11.6 µM [rising, partial curve, poor fit]; under `CC(=O)c1ccc(NC(=O)C(C)N(C)CC(=O)Nc2ccccc2Cl)cc1` (centres undefined), 14.1 µM [rising, partial curve, poor fit]. On the same count and under the same terms, the result for `Cc1cc(C)c(C#N)c(SCC(O)COc2ccc(Br)cc2)n1` (centres undefined) reads 7.08 µM [rising, full curve, poor fit]. For `C/C(=N\NC(=O)c1c(Cl)c(C)nn1C)c1ccc(NC(=O)c2ccncc2)cc1`, the AC50 is 29.1 µM [falling, single point] under setting [1] and 6.51 µM [falling, partial curve, poor fit] under setting [2]. With `Fc1ccc(CSc2nnc(-c3cccs3)o2)cc1`, the AC50 under setting [1] is 0.891 µM [rising, partial curve, poor fit]. With `C=CCC(C)(NCc1ccccc1)c1ccc(C)cc1` (centres undefined), the AC50 under setting [1] was 2.06 µM [rising, full curve, poor fit]. On the same count and under the same terms, under `COc1cc(C2CC(=O)Nc3ccccc3S2)cc(OC)c1OC` (centres undefined) stands 0.0058 µM [rising, full curve, poor fit]; under `CCc1ccc(NC(=O)CN(C)S(=O)(=O)c2ccc3[nH]c(=O)oc3c2)cc1`, 8.91 µM [rising, partial curve, poor fit].

On to `COc1ccc(C(=O)NNC(=O)c2cccc(F)c2)cc1`, for which, under setting [1], the AC50 was 3.55 µM [falling, partial curve]. On the same count and under the same terms, under `CSc1ccc(/C=C/C(=O)NC(=O)c2ccccc2O)cc1` stands 7.08 µM [falling, full curve]. Same read-out and setting: the result for `COc1ccc(CC(=O)Nc2cccc(C(=O)NN3C(=O)c4ccccc4C3=O)c2C)cc1` reads 29.1 µM [rising, partial curve, poor fit]. On the same count and under the same terms, under `C=CCOc1ccc(/C=N\NC(N)=S)cc1` stands 7.08 µM [falling, partial curve, poor fit]; under `CCOc1cc(/C=N/N=C/c2ccc(O)c(OCC)c2)ccc1O`, 5.62 µM [rising, single point]; under `Cc1cc(C(=O)N/N=C/c2cccc([N+](=O)[O-])c2)c(C)n1-c1ccccc1`, 11.6 µM [rising, partial curve]. As to `C/C(CC(=O)Nc1cccc2c1CCCC2)=N\NC(=O)c1ccccc1N`, the AC50 under setting [1] is 15.8 µM [falling, partial curve].

With `CC(/C=C/c1ccccc1)=N\NC(=O)CSc1ccccn1`, the AC50 under setting [1] was 4.11 µM [rising, single point].

As for `COc1ccc(-c2cc(C(=O)NN)[nH]n2)cc1`, the AC50 by setting is: under setting [1], 18.4 µM [rising, partial curve]; under setting [2], 29.1 µM [falling, single point].

`S=C(NCCc1ccccn1)NC1CC2CCC1C2` (centres undefined): under setting [1], the AC50 was 2.51 µM [rising, partial curve]. Same read-out and setting: under `O=C(c1ccccc1)c1c[nH]c2ccccc12` stands 2.51 µM [rising, full curve, poor fit]; under `CC(CC(=O)c1cccs1)CC(=O)c1cccs1`, 3.26 µM [rising, full curve, poor fit]. On to `O=C(NC1CC2CCCC(C1)N2C(=O)Nc1ccccc1)c1ccncc1` (centres undefined), for which the AC50 under setting [1] is 29.1 µM [falling, single point] and the AC50 under setting [2] was 25.9 µM [rising, partial curve, poor fit]. On to `Cc1ncc(CN2CCC(CO)(CCc3ccccc3)CC2)s1`, for which the AC50 under setting [1] is 25.1 µM [falling, partial curve, poor fit]. With `Nc1nc(-n2cnnc2)nn1-c1ccccc1`, under setting [1], the AC50 was 0.517 µM [falling, full curve, poor fit]. As for `COc1ccc(CNC(=O)C2CCN(S(=O)(=O)c3cccc4nsnc34)CC2)cc1`, the AC50 under setting [1] is 12.6 µM [falling, partial curve, poor fit]. `O=C(NNC(=O)c1ccc(NC(=O)c2ccccc2)cc1)c1ccc(F)cc1`: the concentration at half-maximal activity (AC50) under setting [1] was 10 µM [rising, partial curve, poor fit].

`NC(=O)c1ccccc1-c1nc(-c2ccccc2)no1`: the AC50 under setting [1] was 35.5 µM [falling, single point]. The same measure, in the same setting: under `CC(=O)c1ccc(NC(=S)N2CCC(Cc3ccccc3)CC2)cc1` stands 20 µM [falling, single point]; under `C=CCn1cccc(/C=C/C(=O)c2ccc(C(C)(C)C)cc2)c1=S`, 20.6 µM [falling, single point]; under `CN(C)/C=C(\C#N)C(=O)c1cccc(Oc2ccc(Br)cc2)c1`, 0.501 µM [rising, full curve, poor fit]. `CSc1ccc(Cl)c(C(=O)Nc2ccc(C)cn2)c1`: the AC50 under setting [1] is 17.8 µM [falling, single point]. Turning to `O=C(N/N=C/c1ccc(Br)s1)c1cccs1`, the AC50 under setting [1] is 14.1 µM [falling, partial curve]. The same measure, in the same setting: under `CC(Oc1ccc(Br)cc1)C(=O)NC1CCCCCC1` (centres undefined) stands 0.82 µM [rising, full curve, poor fit]; under `COc1ccc(NC(=O)NN2CCN(C)CC2)cc1OC`, 17.8 µM [rising, partial curve, poor fit].
